In doi:10.1101/362988:
These are yes or no findings as the source states them, for the method shown. In cells and extracts the contact can be indirect. These calls come from enrichment with a bait or labelling near it, and not all partners need be listed. Each block holds one molecule with its values, some of them ahead of it.

By UniProt entry, the sequences of proteins in these tests, tags left out.
UniProt Q9R190: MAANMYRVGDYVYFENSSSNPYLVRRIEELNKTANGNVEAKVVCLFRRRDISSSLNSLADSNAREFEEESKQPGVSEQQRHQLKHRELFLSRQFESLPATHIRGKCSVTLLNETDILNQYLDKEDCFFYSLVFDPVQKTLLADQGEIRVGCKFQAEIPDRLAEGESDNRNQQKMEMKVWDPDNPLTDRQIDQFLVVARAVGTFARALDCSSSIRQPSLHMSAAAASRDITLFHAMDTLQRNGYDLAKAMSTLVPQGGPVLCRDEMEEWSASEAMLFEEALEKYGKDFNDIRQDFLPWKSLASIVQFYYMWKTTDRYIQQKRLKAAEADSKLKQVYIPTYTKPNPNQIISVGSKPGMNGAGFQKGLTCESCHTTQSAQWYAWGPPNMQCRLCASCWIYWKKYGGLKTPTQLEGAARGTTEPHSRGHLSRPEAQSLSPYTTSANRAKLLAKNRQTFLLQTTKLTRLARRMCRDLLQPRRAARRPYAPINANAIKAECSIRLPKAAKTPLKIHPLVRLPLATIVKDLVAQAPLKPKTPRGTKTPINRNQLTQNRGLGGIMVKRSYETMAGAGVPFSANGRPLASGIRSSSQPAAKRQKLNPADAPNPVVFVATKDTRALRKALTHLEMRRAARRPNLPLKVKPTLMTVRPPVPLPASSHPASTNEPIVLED
UniProt Q8K4B0: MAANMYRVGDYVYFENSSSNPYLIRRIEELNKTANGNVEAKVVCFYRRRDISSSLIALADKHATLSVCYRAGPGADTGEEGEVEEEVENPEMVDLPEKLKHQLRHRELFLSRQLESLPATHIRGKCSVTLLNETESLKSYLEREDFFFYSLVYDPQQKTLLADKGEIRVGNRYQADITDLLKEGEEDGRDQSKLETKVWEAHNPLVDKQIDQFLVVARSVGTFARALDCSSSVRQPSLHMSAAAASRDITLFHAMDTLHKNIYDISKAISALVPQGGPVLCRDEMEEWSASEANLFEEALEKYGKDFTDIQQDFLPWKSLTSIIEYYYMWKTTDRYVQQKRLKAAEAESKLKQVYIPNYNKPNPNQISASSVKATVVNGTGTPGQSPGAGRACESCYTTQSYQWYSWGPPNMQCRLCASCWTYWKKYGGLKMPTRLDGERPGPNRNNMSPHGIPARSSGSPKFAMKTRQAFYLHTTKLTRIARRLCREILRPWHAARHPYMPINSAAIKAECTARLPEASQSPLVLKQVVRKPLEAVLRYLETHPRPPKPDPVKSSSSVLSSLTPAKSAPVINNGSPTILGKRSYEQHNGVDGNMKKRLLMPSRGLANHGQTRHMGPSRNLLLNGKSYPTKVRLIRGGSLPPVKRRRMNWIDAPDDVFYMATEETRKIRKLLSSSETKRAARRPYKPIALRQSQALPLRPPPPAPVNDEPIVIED
UniProt Q924K8: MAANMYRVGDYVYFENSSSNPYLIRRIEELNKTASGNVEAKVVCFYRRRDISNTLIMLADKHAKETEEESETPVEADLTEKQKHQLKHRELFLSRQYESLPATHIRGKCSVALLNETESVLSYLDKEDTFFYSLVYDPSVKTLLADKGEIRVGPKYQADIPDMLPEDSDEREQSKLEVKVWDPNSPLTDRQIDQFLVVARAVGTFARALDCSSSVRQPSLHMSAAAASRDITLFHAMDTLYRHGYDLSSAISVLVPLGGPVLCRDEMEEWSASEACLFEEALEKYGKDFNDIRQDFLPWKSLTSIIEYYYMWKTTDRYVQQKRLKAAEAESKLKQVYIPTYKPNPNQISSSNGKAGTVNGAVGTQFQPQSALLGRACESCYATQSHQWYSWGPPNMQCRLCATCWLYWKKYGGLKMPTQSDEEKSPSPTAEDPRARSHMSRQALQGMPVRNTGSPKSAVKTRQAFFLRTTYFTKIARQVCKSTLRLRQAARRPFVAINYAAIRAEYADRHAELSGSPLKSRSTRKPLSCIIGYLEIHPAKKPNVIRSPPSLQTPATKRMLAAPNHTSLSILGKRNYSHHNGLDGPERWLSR
UniProt Q8CHY6: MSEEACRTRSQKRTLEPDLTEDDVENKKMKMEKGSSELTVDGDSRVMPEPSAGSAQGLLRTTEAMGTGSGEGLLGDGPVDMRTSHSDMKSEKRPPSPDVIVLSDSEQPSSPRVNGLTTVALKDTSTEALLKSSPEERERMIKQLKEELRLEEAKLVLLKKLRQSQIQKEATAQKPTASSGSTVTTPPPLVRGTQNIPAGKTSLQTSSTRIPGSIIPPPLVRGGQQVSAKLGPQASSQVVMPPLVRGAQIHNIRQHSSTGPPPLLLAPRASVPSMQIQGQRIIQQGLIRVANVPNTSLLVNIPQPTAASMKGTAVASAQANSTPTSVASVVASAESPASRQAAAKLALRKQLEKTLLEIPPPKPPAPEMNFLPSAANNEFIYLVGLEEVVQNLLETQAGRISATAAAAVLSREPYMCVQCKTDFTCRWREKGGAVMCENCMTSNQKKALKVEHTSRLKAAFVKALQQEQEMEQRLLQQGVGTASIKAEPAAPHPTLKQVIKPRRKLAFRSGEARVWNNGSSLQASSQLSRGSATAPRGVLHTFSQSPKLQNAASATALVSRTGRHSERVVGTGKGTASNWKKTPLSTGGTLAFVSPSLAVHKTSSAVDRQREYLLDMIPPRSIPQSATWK
UniProt Q9Z2E1: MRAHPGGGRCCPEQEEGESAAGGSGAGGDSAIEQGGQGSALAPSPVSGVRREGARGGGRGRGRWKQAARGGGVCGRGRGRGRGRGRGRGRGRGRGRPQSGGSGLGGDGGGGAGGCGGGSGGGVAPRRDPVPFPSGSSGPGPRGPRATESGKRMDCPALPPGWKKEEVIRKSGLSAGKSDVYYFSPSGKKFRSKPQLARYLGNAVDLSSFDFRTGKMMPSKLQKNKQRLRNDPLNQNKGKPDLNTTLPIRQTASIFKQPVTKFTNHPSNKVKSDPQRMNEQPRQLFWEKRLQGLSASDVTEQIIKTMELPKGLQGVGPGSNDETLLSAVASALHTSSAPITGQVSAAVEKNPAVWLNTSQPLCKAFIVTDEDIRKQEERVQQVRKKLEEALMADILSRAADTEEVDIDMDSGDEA
UniProt O09106: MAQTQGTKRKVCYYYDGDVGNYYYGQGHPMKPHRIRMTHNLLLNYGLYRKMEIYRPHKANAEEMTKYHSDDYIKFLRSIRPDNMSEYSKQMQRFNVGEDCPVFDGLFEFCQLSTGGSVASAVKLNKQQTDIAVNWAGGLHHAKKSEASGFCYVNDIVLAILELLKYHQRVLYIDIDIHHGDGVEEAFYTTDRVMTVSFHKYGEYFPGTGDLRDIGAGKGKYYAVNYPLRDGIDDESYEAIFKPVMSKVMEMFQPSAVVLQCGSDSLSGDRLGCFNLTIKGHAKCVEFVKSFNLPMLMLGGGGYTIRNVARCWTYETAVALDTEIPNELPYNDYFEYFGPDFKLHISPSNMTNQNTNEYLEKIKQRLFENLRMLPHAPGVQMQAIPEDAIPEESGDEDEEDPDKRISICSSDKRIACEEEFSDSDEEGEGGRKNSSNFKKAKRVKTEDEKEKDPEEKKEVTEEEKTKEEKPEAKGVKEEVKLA
UniProt Q8VHR5: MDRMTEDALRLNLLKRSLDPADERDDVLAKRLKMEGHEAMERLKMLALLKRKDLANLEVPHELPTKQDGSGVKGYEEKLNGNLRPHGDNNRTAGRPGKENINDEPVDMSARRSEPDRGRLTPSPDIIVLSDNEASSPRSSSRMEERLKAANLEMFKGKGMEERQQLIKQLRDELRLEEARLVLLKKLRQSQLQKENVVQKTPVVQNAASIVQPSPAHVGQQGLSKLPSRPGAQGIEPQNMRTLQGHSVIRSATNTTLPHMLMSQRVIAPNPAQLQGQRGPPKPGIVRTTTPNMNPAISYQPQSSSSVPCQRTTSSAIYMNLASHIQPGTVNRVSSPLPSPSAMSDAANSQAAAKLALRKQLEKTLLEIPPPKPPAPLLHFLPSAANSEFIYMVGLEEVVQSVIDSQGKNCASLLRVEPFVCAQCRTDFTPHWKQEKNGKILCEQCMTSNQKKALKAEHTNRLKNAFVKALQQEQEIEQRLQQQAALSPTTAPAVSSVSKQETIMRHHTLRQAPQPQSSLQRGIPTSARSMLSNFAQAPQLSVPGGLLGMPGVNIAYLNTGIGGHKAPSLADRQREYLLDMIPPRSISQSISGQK
UniProt Q6PDQ2: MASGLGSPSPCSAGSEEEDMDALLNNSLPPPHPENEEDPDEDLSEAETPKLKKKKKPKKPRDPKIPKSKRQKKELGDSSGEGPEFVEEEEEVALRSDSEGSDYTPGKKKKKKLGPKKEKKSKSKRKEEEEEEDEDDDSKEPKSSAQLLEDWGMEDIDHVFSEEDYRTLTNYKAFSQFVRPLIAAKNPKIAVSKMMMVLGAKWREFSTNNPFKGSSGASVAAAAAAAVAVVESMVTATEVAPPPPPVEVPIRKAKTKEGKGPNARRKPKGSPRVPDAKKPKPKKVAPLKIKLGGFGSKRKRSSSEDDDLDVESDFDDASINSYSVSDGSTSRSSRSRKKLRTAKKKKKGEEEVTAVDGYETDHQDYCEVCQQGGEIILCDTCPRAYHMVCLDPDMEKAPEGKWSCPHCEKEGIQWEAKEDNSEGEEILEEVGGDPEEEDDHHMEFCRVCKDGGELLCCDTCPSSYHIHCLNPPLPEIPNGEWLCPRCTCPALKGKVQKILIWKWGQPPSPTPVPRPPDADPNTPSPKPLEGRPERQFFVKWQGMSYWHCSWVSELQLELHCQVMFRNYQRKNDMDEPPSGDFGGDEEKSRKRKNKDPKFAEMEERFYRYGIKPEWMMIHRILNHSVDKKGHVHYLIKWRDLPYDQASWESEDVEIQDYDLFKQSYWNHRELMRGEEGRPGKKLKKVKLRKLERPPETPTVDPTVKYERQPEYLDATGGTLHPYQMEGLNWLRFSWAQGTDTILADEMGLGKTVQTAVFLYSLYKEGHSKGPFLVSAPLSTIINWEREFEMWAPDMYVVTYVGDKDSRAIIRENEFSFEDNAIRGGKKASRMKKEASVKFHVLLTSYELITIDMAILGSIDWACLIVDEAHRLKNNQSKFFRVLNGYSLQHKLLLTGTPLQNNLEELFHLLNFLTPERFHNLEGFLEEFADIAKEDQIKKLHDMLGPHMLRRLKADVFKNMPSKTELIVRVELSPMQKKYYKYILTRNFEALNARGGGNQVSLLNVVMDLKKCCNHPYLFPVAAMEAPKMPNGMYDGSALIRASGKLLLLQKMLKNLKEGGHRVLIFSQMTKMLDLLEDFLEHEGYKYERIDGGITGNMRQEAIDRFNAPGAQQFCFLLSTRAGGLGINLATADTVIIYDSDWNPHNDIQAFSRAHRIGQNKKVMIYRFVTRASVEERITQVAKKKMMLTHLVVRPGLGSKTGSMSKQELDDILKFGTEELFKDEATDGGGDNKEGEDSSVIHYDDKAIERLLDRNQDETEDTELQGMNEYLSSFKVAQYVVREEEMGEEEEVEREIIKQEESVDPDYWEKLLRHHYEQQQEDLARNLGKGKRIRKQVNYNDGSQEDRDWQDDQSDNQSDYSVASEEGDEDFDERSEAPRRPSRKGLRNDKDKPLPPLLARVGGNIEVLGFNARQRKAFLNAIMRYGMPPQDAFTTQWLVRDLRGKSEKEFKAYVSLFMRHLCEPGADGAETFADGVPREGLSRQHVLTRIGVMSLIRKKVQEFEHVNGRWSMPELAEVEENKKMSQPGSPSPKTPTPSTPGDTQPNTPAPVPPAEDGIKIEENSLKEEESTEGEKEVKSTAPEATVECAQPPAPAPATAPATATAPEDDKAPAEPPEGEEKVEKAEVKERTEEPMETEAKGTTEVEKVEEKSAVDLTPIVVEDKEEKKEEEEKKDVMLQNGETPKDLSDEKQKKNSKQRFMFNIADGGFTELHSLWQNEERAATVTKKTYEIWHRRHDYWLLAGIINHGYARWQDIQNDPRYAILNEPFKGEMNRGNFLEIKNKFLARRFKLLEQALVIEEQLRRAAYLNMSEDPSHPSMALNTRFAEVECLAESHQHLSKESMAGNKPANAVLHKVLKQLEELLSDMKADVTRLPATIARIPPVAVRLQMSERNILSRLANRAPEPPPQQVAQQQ
UniProt P70288: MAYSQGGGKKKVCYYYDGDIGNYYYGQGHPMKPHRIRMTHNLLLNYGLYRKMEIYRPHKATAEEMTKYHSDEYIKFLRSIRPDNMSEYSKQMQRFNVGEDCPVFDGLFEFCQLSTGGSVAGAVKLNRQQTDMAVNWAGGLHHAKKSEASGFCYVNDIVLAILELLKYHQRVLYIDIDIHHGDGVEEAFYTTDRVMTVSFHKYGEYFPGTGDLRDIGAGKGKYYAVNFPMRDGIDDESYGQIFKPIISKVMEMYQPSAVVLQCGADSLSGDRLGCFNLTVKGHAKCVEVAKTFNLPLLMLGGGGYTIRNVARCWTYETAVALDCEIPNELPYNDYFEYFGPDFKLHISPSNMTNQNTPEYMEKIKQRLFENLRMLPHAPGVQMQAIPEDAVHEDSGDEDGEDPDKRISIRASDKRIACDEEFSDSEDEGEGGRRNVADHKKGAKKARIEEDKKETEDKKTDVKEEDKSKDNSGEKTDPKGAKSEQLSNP

How the values were obtained:
Assay in all cases: affinity purification with mass spectrometry
[1] = target: Mta2-GFP (mouse (endogenous in ES cells)) (UniProt Q9R190)
[2] = target: Mta1-Avi-3xFLAG (mouse (endogenous in ES cells)) (UniProt Q8K4B0)
[3] = target: Mta3-Avi-3xFLAG (mouse (endogenous in ES cells)) (UniProt Q924K8)

binding [3]: binds | binding [2]: binds
Molecule: Gatad2a (from UniProt Q8CHY6 1-629)

binding [3]: binds | binding [1]: binds | binding [2]: binds
Molecule: Zfp296 (from UniProt E9Q6W4)

binding [3]: binds | binding [1]: binds | binding [2]: binds
Molecule: Mbd2 (from UniProt Q9Z2E1 1-414)

binding [1]: binds
Molecule: Zfp512b (from UniProt B7ZCR6)

binding [1]: binds
B1: Zfp219 (protein, UniProt Q6IQX8 1-726)
chain: MEGSRPRILVGHLEPSPPAFDGELDLQRYSNGPGVSGTPGPGSPGMGAVGWSETRAGERRFPCPVCGKRFRFNSILALHLRAHPGAQAFQCPHCGHRAAQRALLRSHLRTHQPERPRSPAARLLLELEERALLREARLGRARSSGGMQSSPAAEGLARPQVPSSSAFRCPFCKGKFRTSAERERHLHILHRPWKCSLCSFGSSQEEELLHHSLTAHGASERPLAATSTPEPPPPPQQEPRSALEPEPEPEPRPEPDREANPAPTPAPPEEPPAPPEFRCQVCGQSFTQSWFLKGHMRKHKASFDHACPVCGRCFKEPWFLKNHMKVHTSKLGPLRAPGPGSAPARAPQPPDLSLLAYEPLGPALLLAPAPAPAERREPPSLLGYLSVRAGEVRPNGEGADPGGGRSYGGFRPLPSALPNRARRHRTEEPEEEEEVVEAEEESWARGRSLGSLTSLHPNPGEGSGQPAPAAGTQARSTATQEENGLLVGGTRSEAGRGATGKDCPFCGKSFRSAHHLKVHLRVHTGERPYKCPHCDYAGTQSGSLKYHLQRHHREQRSSAGPGPPPEPPPPSQRGSLQPQSGAKPTQASATWVEGTASTRPPSSSTGPGSRRKPASPGRTLRNGRGGEAEPLDLSLRAGPGGEAGAGGALHRCLFCPFATGAPELMALHLQVHHSRRARGRRQPRADTSPTYVRAPSGETPPSPPLEEEGSPGLSRSGEAGLGGQER

Further lines, the molecule ahead of its results:

Molecule: Mta3 (from UniProt Q924K8 1-591)
binding [1]: binds | binding [2]: binds

Molecule: Mta2 (from UniProt Q9R190 1-668)
binding [3]: binds | binding [2]: binds

Molecule: Hdac1 (from UniProt O09106 1-482)
binding [3]: binds | binding [1]: binds | binding [2]: binds

Molecule: Gatad2b (from UniProt Q8VHR5 1-594)
binding [1]: binds | binding [2]: binds

Molecule: Chd4 (from UniProt Q6PDQ2 1-1915)
binding [3]: binds | binding [1]: binds | binding [2]: binds

Molecule: Hdac2 (from UniProt P70288 1-488)
binding [3]: binds | binding [1]: binds | binding [2]: binds

Molecule: Mta1 (from UniProt Q8K4B0 1-715)
binding [3]: binds | binding [1]: binds

B2: Cdk2ap1 (protein, UniProt O35207 1-114)
chain: MSYKPNLTAHMPAAALNAGSVHSPSTSMATSSQYRQLLSDYGPPSLGYTQGTGNSQVPQSKYAELLAIIEELGKEIRPTYAGSKSAMERLKRGIIHARSLVRECLAETERNARS
binding [3]: binds | binding [1]: binds | binding [2]: binds

B3: Pwwp2a (protein, UniProt Q69Z61 1-730)
chain: MAAVAAEAAATAASPGEGGAGEAEPELEPIPGSEAGTPLPVTATEAAVPDGEADGRQSAPQADEQPLPPPPPPPPPGELADSSEAEEAKPPEPAAVPVSPPEQPPAAPEQPEDAPRPPPAPALVPPAGGDSAVSHLIPGSEVRVTLDHIIEDALVVSFRLGEKLFSGVLMDLSKRFGPHGIPVTVFPKREYKDKPDAMQLQSTTFQEGIEVKQEVNGAVPDDLSPVPPPERLWASKPPPLFHEGAPYPPPLFIRDTYNQSIPQPPPRKIKRPKRKMYREEPTSIMNAIKLRPRQVLCDKCKNSVVAEKKEIRKGSSDSSRYEDKKRRNDSVATVNKKLKTDHKVDGKNQNESQRRNTVVRVSSIAHSRGRVVKVSAQANTSKAQLNTKKVLQSKNMDHAKAREVLKIAKEKAQKKQSETSTSKTAHAKVHFTRRYQSPSSGSLPPRVRLKPQRYRNEENDSSLKTGLEKIRSGKLAPKPQSRCTSTRSAGEAPSEKPSPSEGPEESAGEVQDTSRVRVPGEQEELRMLGKKGSKSSISVYLTLNQETSDSSSASVCSIDSMDDLKSSNSECSSSESFVFPPGCMHAPSASSTSTSFSSKEENSLRNSLKMKIFSKNVSKCITPDGRTICVGDIVWAKIYGFPWWPARILTITVSRKDNGLLARQEARISWFASPTTSSLALSQLSPFLENFQLRFNKKRKGLYRRAITEAAKAAKQLTPEVRALLTQFET
binding [2]: binds
